Results are given in words; binding and its absence hold for the method and conditions named. Binding seen in cells or lysates may run through a third protein. Here binding means that the protein was enriched with, or labelled near, the bait; the list need not be complete. Tags and fused reporters may be left off the sequences shown.
Biological target: T1, DUF581-9-myc (Arabidopsis thaliana) (UniProt O80506)
T1 sequence: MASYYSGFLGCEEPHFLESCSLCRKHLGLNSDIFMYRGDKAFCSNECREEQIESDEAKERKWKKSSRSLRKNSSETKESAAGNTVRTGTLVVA
Experiment: affinity purification with mass spectrometry

binding: binds
B1: KIN10 (protein, UniProt Q38997 1-512)
chain: MDGSGTGSRSGVESILPNYKLGRTLGIGSFGRVKIAEHALTGHKVAIKILNRRKIKNMEMEEKVRREIKILRLFMHPHIIRLYEVIETPTDIYLVMEYVNSGELFDYIVEKGRLQEDEARNFFQQIISGVEYCHRNMVVHRDLKPENLLLDSKCNVKIADFGLSNIMRDGHFLKTSCGSPNYAAPEVISGKLYAGPEVDVWSCGVILYALLCGTLPFDDENIPNLFKKIKGGIYTLPSHLSPGARDLIPRMLVVDPMKRVTIPEIRQHPWFQAHLPRYLAVPPPDTVQQAKKIDEEILQEVINMGFDRNHLIESLRNRTQNDGTVTYYLILDNRFRASSGYLGAEFQETMEGTPRMHPAESVASPVSHRLPGLMEYQGVGLRSQYPVERKWALGLQSRAHPREIMTEVLKALQDLNVCWKKIGHYNMKCRWVPNSSADGMLSNSMHDNNYFGDESSIIENEAAVKSPNVVKFEIQLYKTRDDKYLLDLQRVQGPQFLFLDLCAAFLAQLRVL

Source: doi:10.1101/2022.03.17.484690
